Measured values: PubChem BioAssay AID493014 (National Center for Advancing Translational Sciences (NCATS), 2011)
The other results are listed elsewhere or left out. Further columns of the screen follow, without active or inactive calls. Compounds called inactive in the main read-out are mostly missing here. Words in brackets tell the shape of the fitted curve; partial curves, single points and poor fits give uncertain potencies.

Experiment: qHTS Assay to Find Inhibitors of Chronic Active B-Cell Receptor Signaling
Settings: ABC-DLBCL IkBa-CBG/CBR reporter, luminescence ratio (green luciferase fused to IkBa over red control in TMD8 lymphoma cells), 4 h
In short: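 Concentration-response series (up to 46 uM) were applied to TMD8 dual-reporter cells for 4 h at 37C with doxycycline. Green/red ratio, after filter-overlap correction, defined %Activity; red signal alone was normalised to basal cells and zero luminescence.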

[1] = measured here: CBR red luminescence, cell number
[2] = measured here: IkBa-CBG green luminescence

| Structure (SMILES) | AC50 [1] | AC50 [2] |
| --- | --- | --- |
| CCCCn1c(=O)c(CCC(=O)OCC(=O)NCc2ccc(OC)c(OC)c2)nc2ccccc21 | 6.31 µM [rising, partial curve, poor fit] |  |
| Cn1c2c(c(=O)n(C)c1=O)C1c3cc(Cl)ccc3OCC1CO2 (centres undefined) | 7.31 µM [rising, single point] |  |
| Clc1ccc(-c2csc(Nc3cccnc3)n2)cc1 | 0.708 µM [rising, full curve, poor fit] |  |
| Cc1ccc(/C=C/C(=O)Nc2ccccc2C(N)=O)cc1 | 9.2 µM [falling, single point] |  |
| COc1ccc2[nH]c3c(N4CCN(Cc5ccc6c(c5)OCO6)CC4)ncnc3c2c1 | 35.5 µM [falling, single point] |  |
| C/C(Cn1nnc([N+](=O)[O-])n1)=N\NC(=O)c1ccc(O)cc1O | 5.8 µM [falling, partial curve, poor fit] |  |
| CCOc1cc(CNC2CCCC2)c(Cl)cc1OCC(=O)Nc1ccccc1 | 15.8 µM [falling, single point] |  |
| O=C(COc1cccc(NC(=O)c2cccs2)c1)c1ccc(F)cc1 | 14.6 µM [falling, partial curve, poor fit] |  |
| COc1ccc(-c2cc(C(F)(F)F)c3c(N)c(C(=O)NCCSC)sc3n2)cc1 | 28.2 µM [rising, partial curve, poor fit] |  |
| CCOC(=O)CSc1nnc(NC(=O)NC(C)C)s1 | 17.8 µM [falling, single point] |  |
| O=c1[nH]c(=S)c2c(n1-c1ccccc1)CCC2 | 25.9 µM [falling, partial curve, poor fit] |  |
| COc1ccc(N2CCN(CCNC(=O)Nc3ccc(C)cc3Cl)CC2)cc1 | 2.82 µM [rising, partial curve, poor fit] |  |
| Cc1ccc(NS(=O)(=O)c2ccc(-c3cnc(C4CC4)o3)cc2)c(C)c1 | 8.91 µM [rising, partial curve] | 8.91 µM [falling, partial curve] |
| COc1cc(C(=O)N2CCN(S(=O)(=O)c3ccc(C)cc3C)CC2)ccc1OCC(=O)N1CCOCC1 | 6.51 µM [rising, single point] |  |
| Fc1ccccc1Nc1ncnc2c1nnn2Cc1ccccc1 | 6.31 µM [falling, partial curve] |  |
| O=C(N/N=C\c1ccc(F)cc1)c1csnn1 | 35.5 µM [falling, single point] |  |
| CCN(Cc1ccncc1)C(=O)c1cccc(S(=O)(=O)N2CCOCC2)c1 | 12.6 µM [falling, partial curve, poor fit] |  |
| C/C(=N/NC(=S)Nc1cccc(C)c1)c1cccc([N+](=O)[O-])c1 | 4.47 µM [falling, partial curve, poor fit] | 5.62 µM [falling, single point] |
| COc1ccccc1N=C1SC(C(=O)Nc2ccc(F)cc2)CC(=O)N1C (centres undefined) | 32.6 µM [falling, single point] |  |
| O=C(OCC(=O)N1CCN(C(=O)c2ccco2)CC1)c1ccccc1O | 1.64 µM [rising, single point] |  |
| CCC1(CC)Cc2ccccc2C(Nc2c(C)n(C)n(-c3ccccc3)c2=O)=N1 | 16.4 µM [falling, partial curve, poor fit] |  |

| Structure (SMILES) | AC50 [1] | AC50 [2] |
| --- | --- | --- |
| Clc1cccc(/C=N/N2CCN(Cc3ccccc3)CC2)c1 | 7.94 µM [rising, partial curve] |  |
| Cc1ccc(CC(=O)Nc2nc3ccccc3s2)cc1 | 12.6 µM [falling, single point] | 12.6 µM [rising, partial curve, poor fit] |
| NNC(=O)c1cc(-c2ccc(O)cc2)nc2ccc(Br)cc12 | 3.55 µM [rising, single point] |  |
| CCCOc1ccc(N2C(=O)CC(N(Cc3ccco3)C(=O)CC)C2=O)cc1 (centres undefined) | 11.2 µM [falling, partial curve, poor fit] |  |
| CC1(c2nnc(-c3ccc(F)cc3)o2)CC(c2ccc([N+](=O)[O-])cc2)=NO1 (centres undefined) | 7.08 µM [rising, partial curve, poor fit] |  |
| O=C(CCCN1C(=O)c2ccccc2C1=O)Nc1nccs1 | 20.6 µM [falling, single point] |  |
| Cc1nn(Cc2ccc(C(=O)Nc3ccccc3F)cc2)c(C)c1Cl | 22.4 µM [falling, partial curve] |  |
| CCCCNC(=S)NC(=O)c1ccc([N+](=O)[O-])cc1 | 3.55 µM [rising, full curve, poor fit] |  |
| CCOC(=O)c1ccc2nc(NC(=O)C(C)C)sc2c1 | 16.4 µM [falling, single point] |  |
| N#CC1=C(S)N(c2ccc(F)cc2)C(c2ccco2)NC1=O (centres undefined) | 5.62 µM [rising, single point] | 35.5 µM [falling, partial curve, poor fit] |
| O=Cc1nc(-c2ccc(Cl)cc2)n2ccccc12 | 0.206 µM [rising, full curve, poor fit] |  |
| COc1ccc(Cl)cc1NC(=O)CN(C)C(=O)c1sccc1-c1ccccc1 | 29.1 µM [falling, single point] |  |
| O=C(NCc1ccco1)C1CCCN(S(=O)(=O)c2cccc3cccnc23)C1 (centres undefined) | 12.6 µM [falling, single point] |  |
| Cc1ccsc1/C=N\NC(=O)c1n[nH]c2c1CCC2 | 9.2 µM [falling, partial curve] |  |
| CC(C)C(=O)N1CCN(c2ccccc2NC(=O)c2ccco2)CC1 | 35.5 µM [falling, single point] |  |
| COC(=O)[C@]1(Cc2ccccc2)N[C@H](c2ccc(-c3cccc(Cl)c3)cc2)[C@@H]2C(=O)N(C)C(=O)[C@@H]21 | 25.9 µM [falling, partial curve, poor fit] |  |
| COc1cccc(NC(=O)Nc2nnc(Cc3ccccc3F)s2)c1 | 12.6 µM [rising, single point] |  |
| Cc1nc(-c2cccc(NC(=O)Cc3ccccc3)c2)cs1 | 25.1 µM [falling, single point] |  |
| O=C(OCCN1CCCC1)C1(c2ccccc2)CCCC1 | 2.82 µM [falling, single point] |  |
| CCC/C(C#Cc1ccsc1)=C1/c2ccccc2C(=O)N1c1ccccc1 | 20.6 µM [falling, partial curve] |  |
| CC(=O)C(Cc1ccccc1)NC(=O)CN1c2cccc3cccc(c23)S1(=O)=O (centres undefined) | 32.6 µM [rising, partial curve, poor fit] |  |

| Structure (SMILES) | AC50 [1] | AC50 [2] |
| --- | --- | --- |
| COc1cccc(NC(=O)c2ccc(S(=O)(=O)N3CCCC3)cc2)c1 | 8.91 µM [falling, partial curve, poor fit] |  |
| S=C(Nc1ccc(Cl)c(Cl)c1)NC1CCCCC1 | 2.06 µM [rising, partial curve] | 32.6 µM [rising, partial curve, poor fit] |
| Cc1ccc(-c2nn(-c3ccccc3)cc2C(=O)N2CCOCC2)cc1 | 8.91 µM [rising, partial curve] |  |
| CN(C)c1ccc(N=C/C=C2\N(C)c3ccccc3C2(C)C)cc1 | 0.708 µM [falling, full curve] |  |
| C=CCn1c(CNc2ccccc2)nnc1SCC(=O)N/N=C/c1ccc(O)cc1O | 7.94 µM [falling, partial curve] |  |
| COC(=O)c1ccc(C(=O)OC)c(=O)[nH]1 | 3.98 µM [falling, single point] | 6.31 µM [rising, single point] |
| Cc1c(-c2ccccc2)nc(N)c(C#N)c1-c1cccnc1 | 0.794 µM [falling, full curve] |  |
| COc1cc2c(cc1O)C(SC)=NC(C)(C)C2 | 23.1 µM [rising, single point] | 20.6 µM [falling, single point] |
| CCOc1ccccc1N(C(=O)c1snc(C(N)=O)c1N)C(C(=O)NC1CCCC1)c1cccs1 (centres undefined) | 11.2 µM [falling, partial curve, poor fit] |  |
| O=c1c2c(nc3cc(-c4cccc(F)c4)[nH]n13)CCC2 | 3.16 µM [falling, full curve] |  |
| S=C(Nc1ccc(Cl)cc1)NC1CCCCC1 | 28.2 µM [falling, single point] |  |
| N#Cc1c(N2CCOCC2)nsc1-c1ccc(C(F)(F)F)cc1 | 5.62 µM [rising, partial curve, poor fit] |  |
| CCc1ccc(N2C(=O)CN(Cc3sccc3C)C2=S)cc1 | 20 µM [rising, partial curve, poor fit] |  |
| CN1CCN(C(c2ccc(C(F)(F)F)cc2)c2cc(Cl)c3cccnc3c2O)CC1 (centres undefined) | 35.5 µM [falling, single point] |  |
| COC(=O)c1c(-c2ccc(S(C)(=O)=O)cc2)sc2cc(OC)ccc12 | 9.2 µM [rising, partial curve] |  |
| Cc1ccc(C(=O)Nc2cccnc2)cc1S(=O)(=O)N1CCCCCC1 | 12.6 µM [falling, partial curve] |  |
| O=S(=O)(NCCNS(=O)(=O)c1ccccc1)c1ccccc1 | 2.06 µM [rising, single point] |  |
| COc1ccc(C/C(C)=N/NC(=O)c2ccc(C)cc2C)cc1 | 15.8 µM [falling, partial curve, poor fit] |  |
| Cc1ccc(NC(=O)C2=C(O)c3ccccc3N(C)S2(=O)=O)cc1 | 16.4 µM [falling, partial curve] |  |
| COc1cc(/C=N/NC(=O)CNC(=O)/C=C/c2ccco2)cc(OC)c1OC | 4.47 µM [rising, full curve, poor fit] |  |

Of the compounds above, three have a cyano group:

| Structure (SMILES) | AC50 [1] | AC50 [2] |
| --- | --- | --- |
| N#CC1=C(S)N(c2ccc(F)cc2)C(c2ccco2)NC1=O (centres undefined) | 5.62 µM [rising, single point] | 35.5 µM [falling, partial curve, poor fit] |
| Cc1c(-c2ccccc2)nc(N)c(C#N)c1-c1cccnc1 | 0.794 µM [falling, full curve] |  |
| N#Cc1c(N2CCOCC2)nsc1-c1ccc(C(F)(F)F)cc1 | 5.62 µM [rising, partial curve, poor fit] |  |
